In patent US20140295012A1, “LATENT HUMAN IMMUNODEFICIENCY VIRUS REACTIVATION” (priority 2011, published 2014):
At least one compound was matched to its structure with a doubt left.

Test system: latently HIV-1 infected CA5 T cells
Type: cell-based
Details: CA5 cells pretreated with increasing concentrations
Description: Infection levels in the cell cultures were monitored by flow cytometric analysis of EGFP expression. Flow cytometric analysis was performed on a GUAVA EasyCyte (Millipore; Billerica, Mass.), or a LSRII (Becton & Dickinson; Franklin Lakes, N.J.).
Bacterial growth. Bacteria from various sources were isolated on TSA II agar plates containing 5% sheep blood. Bacterial isolates were then grown in RPMI 1640 medium supplemented with 10% FBS. After two days of incubation at 37° C. bacteria were pelleted and resuspended in RPMI medium to an optical density (OD600) of 8, aliquoted and frozen at −80° C. Unless otherwise indicated, Massilia timonae was grown in RPMI 1640 medium supplemented with 10% FBS. […] HRF activity was determined by its ability to reactivate latent HIV-1 infection in CA5 cells. […]
Flow cytometry. Infection levels in the cell cultures were monitored by flow cytometric (FCM) analysis of GFP expression. […]
To identify the optimal concentration of dactinomycin, CA5 T cells were pretreated with increasing concentrations of dactinomycin (0.0001 and 1 μg/ml), and then left untreated or stimulated with a sub-optimal concentration of HRF or TNF-α. […] Twenty four hours after activator addition, levels of HIV-1 reactivation were determined as the percentage of GFP-positive cells using flow cytometric analysis, which allowed for the simultaneous determination of cell viability. […]

COc1cc(NS(C)(=O)=O)ccc1Nc1c2ccccc2nc2ccccc12 [amsacrine]
priming effect on HIV-1 reactivation by sub-optimal dose of HRF: not reproduced
